Measured values: patent publication US20070036789A1 (NATIONAL CANCER CENTER, published 2007)
No constants are given. Whether binding was seen depends on the method and setting. Some results given as binding are weak or reduced against the parent protein; the word gives no strength.

Chains of the proteins cited; added tags and fusions are not shown. Residues count along the entry.
UniProt P08581, residues 25-932: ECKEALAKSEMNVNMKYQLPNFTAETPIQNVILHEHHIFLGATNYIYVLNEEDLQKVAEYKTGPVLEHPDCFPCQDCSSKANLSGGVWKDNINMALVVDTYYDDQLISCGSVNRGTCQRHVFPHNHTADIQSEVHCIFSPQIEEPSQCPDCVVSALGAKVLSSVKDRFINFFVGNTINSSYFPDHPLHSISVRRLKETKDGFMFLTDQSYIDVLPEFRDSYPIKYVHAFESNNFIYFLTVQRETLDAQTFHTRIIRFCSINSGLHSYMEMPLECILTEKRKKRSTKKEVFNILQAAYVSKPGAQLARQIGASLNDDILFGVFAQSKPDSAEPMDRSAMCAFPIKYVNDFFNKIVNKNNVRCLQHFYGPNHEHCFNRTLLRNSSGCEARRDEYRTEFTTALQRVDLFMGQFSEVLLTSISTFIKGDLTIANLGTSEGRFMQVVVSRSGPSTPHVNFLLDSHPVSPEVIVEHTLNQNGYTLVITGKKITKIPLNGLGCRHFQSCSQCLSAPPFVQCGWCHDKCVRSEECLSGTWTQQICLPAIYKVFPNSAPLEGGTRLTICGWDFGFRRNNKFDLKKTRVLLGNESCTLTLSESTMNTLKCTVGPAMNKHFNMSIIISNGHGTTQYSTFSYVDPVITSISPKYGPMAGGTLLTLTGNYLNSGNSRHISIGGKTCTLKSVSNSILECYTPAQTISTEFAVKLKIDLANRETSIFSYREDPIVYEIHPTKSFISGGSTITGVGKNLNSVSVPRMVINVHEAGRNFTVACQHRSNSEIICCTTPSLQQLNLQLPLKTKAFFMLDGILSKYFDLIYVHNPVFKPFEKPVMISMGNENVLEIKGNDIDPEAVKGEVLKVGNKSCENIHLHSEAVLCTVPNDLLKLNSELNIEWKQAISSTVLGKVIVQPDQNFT

Molecular target: T1, c-Met (UniProt P08581 25-932, limits assumed)
T1 construct: also called HGF receptor
Test: phage ELISA on coated c-Met, anti-M13 HRP detection

Binder	binding
HHPHFKPVSNSR [phage containing the peptide of SEQ ID NO: 32]	binds
KSLSRHDHIHHH [phage containing the peptide of SEQ ID NO: 33]	binds
